{"source": "PubChem BioAssay AID1259425 (University of Nebraska Medical Center, 2018)", "aim": "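Compare each knockdown with KSR1 silencing using changes in marker transcripts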 (primary screen)", "cells": "HCT116 human colon cancer cells", "reagents": "siRNA pool against human genes, 50 nM siRNA", "measurement": "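After 50 nM siRNA pool, branched-DNA assay measures six marker transcripts per well, minus blank, normalised to the geometric mean of two housekeeping transcripts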", "scale": "BNIP3L mRNA: higher = more BNIP3L transcript after knockdown; NDRG1 mRNA: higher = more NDRG1 transcript after knockdown", "note": "The deposit covers about 14,000 reagents; below is a part drawn at random. Not all columns of the deposit are shown. Not stated in the record: the time to read-out."}
{"Target gene": "HAVCR2 (hepatitis A virus cellular receptor 2)", "BNIP3L mRNA, set 1": 0.0997, "NDRG1 mRNA, set 1": 0.414}
{"Target gene": "CPN1 (carboxypeptidase N subunit 1)", "BNIP3L mRNA, set 1": 0.106, "NDRG1 mRNA, set 1": 0.13}
{"Target gene": "TRIM51 (tripartite motif-containing 51)", "BNIP3L mRNA, set 1": 0.319, "NDRG1 mRNA, set 1": 0.364}
{"Target gene": "MPIG6B (megakaryocyte and platelet inhibitory receptor G6b)", "BNIP3L mRNA, set 1": 0.11, "NDRG1 mRNA, set 1": 0.215}
{"Target gene": "GPR22 (G protein-coupled receptor 22)", "BNIP3L mRNA, set 1": 0.332, "NDRG1 mRNA, set 1": 0.392}
{"Target gene": "PCDHA9 (protocadherin alpha 9)", "BNIP3L mRNA, set 1": 0.097, "NDRG1 mRNA, set 1": 0.123}
{"Target gene": "RHOQ (ras homolog family member Q)", "BNIP3L mRNA, set 1": 0.0789, "NDRG1 mRNA, set 1": 0.0481}
{"Target gene": "ADGRE5 (adhesion G protein-coupled receptor E5)", "BNIP3L mRNA, set 1": 0.154, "NDRG1 mRNA, set 1": 0.168}
{"Target gene": "PTHLH (parathyroid hormone like hormone)", "BNIP3L mRNA, set 1": 0.13, "NDRG1 mRNA, set 1": 0.188}
{"Target gene": "THG1L (tRNA-histidine guanylyltransferase 1 like)", "BNIP3L mRNA, set 1": 0.0697, "NDRG1 mRNA, set 1": 0.298}
{"Target gene": "WDR75 (WD repeat domain 75)", "BNIP3L mRNA, set 1": 0.221, "NDRG1 mRNA, set 1": 0.428}
{"Target gene": "CYP2C9 (cytochrome P450 family 2 subfamily C member 9)", "BNIP3L mRNA, set 1": 0.0517, "NDRG1 mRNA, set 1": 0.0621}
{"Target gene": "SLC15A3", "BNIP3L mRNA, set 1": 0.0595, "NDRG1 mRNA, set 1": 0.0996}

2 entries from above, ordered by “BNIP3L mRNA, set 1”, high to low.
{"Target gene": "ADGRE5 (adhesion G protein-coupled receptor E5)", "BNIP3L mRNA, set 1": 0.154, "NDRG1 mRNA, set 1": 0.168}
{"Target gene": "PTHLH (parathyroid hormone like hormone)", "BNIP3L mRNA, set 1": 0.13, "NDRG1 mRNA, set 1": 0.188}

Next records follow.
{"Target gene": "GALNT8 (polypeptide N-acetylgalactosaminyltransferase 8)", "BNIP3L mRNA, set 1": 0.304, "NDRG1 mRNA, set 1": 0.379}
{"Target gene": "LRRC61 (leucine rich repeat containing 61)", "BNIP3L mRNA, set 1": 0.165, "NDRG1 mRNA, set 1": 0.156}
{"Target gene": "C5orf15 (chromosome 5 open reading frame 15)", "BNIP3L mRNA, set 1": 0.308, "NDRG1 mRNA, set 1": 0.554}
{"Target gene": "OGDH (oxoglutarate dehydrogenase)", "BNIP3L mRNA, set 1": 0.0609, "NDRG1 mRNA, set 1": 0.273}
{"Target gene": "SHH (sonic hedgehog signaling molecule)", "BNIP3L mRNA, set 1": 0.175, "NDRG1 mRNA, set 1": 0.186}
{"Target gene": "PDLIM1 (PDZ and LIM domain 1)", "BNIP3L mRNA, set 1": 0.126, "NDRG1 mRNA, set 1": 0.756}
{"Target gene": "ANO8 (anoctamin 8)", "BNIP3L mRNA, set 1": 0.997, "NDRG1 mRNA, set 1": 3.72}
{"Target gene": "AFAP1-AS1 (AFAP1 antisense RNA 1)", "BNIP3L mRNA, set 1": 0.0843, "NDRG1 mRNA, set 1": 0.358}
{"Target gene": "CYP2D6", "BNIP3L mRNA, set 1": 0.187, "NDRG1 mRNA, set 1": 0.458}
{"Target gene": "PHAF1 (phagophore assembly factor 1)", "BNIP3L mRNA, set 1": 0.128, "NDRG1 mRNA, set 1": 0.306}
{"Target gene": "ANKEF1 (ankyrin repeat and EF-hand domain containing 1)", "BNIP3L mRNA, set 1": 0.0592, "NDRG1 mRNA, set 1": 0.05}
{"Target gene": "ZBTB40 (zinc finger and BTB domain containing 40)", "BNIP3L mRNA, set 1": 0.092, "NDRG1 mRNA, set 1": 0.136}
{"Target gene": "IL22RA2 (interleukin 22 receptor subunit alpha 2)", "BNIP3L mRNA, set 1": 0.0493, "NDRG1 mRNA, set 1": 0.109}
{"Target gene": "DNAAF2 (dynein axonemal assembly factor 2)", "BNIP3L mRNA, set 1": 0.486, "NDRG1 mRNA, set 1": 0.55}
{"Target gene": "ABCB11 (ATP binding cassette subfamily B member 11)", "BNIP3L mRNA, set 1": 0.129, "NDRG1 mRNA, set 1": 0.388}
